The results in this text go back to paper PMC10371266.

Chains of the proteins cited; added tags and fusions are not shown. Lines headed by an entry give the natural chain unless they say otherwise; changes in a name come on top. A line that says so, or that is headed by a name, gives the form on record, which may keep a tag or linker. Residues count along the entry.
human type IV collagen α5 chain fused to LgBiT, α5(IV)-LgBiT wild type (P29400, residues 27-1685): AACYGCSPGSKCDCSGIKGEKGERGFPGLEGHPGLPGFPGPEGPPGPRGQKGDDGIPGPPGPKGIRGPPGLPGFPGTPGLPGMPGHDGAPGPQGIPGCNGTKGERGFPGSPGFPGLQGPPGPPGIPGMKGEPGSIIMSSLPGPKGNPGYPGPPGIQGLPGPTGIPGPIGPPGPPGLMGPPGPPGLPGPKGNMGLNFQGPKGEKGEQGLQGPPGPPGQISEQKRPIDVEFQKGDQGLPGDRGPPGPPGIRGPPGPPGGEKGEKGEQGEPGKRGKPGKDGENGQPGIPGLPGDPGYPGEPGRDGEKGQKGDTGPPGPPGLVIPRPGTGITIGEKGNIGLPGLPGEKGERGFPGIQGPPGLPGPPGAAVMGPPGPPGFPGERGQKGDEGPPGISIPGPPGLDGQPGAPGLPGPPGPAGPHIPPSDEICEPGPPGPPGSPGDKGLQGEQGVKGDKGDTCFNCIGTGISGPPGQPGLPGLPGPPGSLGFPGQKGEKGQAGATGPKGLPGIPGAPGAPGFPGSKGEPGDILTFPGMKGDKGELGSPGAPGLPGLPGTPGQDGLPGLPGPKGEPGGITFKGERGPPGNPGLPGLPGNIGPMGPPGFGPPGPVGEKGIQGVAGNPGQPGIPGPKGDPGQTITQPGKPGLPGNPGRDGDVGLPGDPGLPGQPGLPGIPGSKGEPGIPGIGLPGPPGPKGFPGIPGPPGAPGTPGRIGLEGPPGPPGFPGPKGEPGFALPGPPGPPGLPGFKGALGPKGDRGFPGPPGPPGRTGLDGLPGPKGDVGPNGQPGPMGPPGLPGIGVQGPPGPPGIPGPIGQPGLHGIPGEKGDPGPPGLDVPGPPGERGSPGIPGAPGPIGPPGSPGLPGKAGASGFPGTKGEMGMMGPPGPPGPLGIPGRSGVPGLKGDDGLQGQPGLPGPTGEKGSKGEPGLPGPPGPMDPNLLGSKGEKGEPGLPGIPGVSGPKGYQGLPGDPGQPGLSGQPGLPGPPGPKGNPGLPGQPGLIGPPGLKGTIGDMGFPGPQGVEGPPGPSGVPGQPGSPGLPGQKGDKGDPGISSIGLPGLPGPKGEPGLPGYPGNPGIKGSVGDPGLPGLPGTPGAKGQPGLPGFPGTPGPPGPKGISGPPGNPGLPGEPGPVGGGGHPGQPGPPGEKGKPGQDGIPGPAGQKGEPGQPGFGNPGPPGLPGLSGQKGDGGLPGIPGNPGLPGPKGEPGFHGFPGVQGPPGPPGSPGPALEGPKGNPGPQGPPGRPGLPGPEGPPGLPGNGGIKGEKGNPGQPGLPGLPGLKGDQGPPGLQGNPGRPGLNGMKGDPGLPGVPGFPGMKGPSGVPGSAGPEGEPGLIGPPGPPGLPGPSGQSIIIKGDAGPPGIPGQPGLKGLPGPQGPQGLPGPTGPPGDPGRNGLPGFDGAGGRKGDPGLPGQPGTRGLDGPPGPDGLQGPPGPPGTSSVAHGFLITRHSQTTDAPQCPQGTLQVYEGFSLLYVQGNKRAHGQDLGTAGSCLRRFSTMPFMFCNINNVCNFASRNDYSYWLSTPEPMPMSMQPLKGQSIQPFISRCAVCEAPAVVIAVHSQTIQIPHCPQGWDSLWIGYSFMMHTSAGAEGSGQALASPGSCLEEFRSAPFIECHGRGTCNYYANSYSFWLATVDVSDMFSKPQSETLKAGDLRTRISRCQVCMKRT
human type IV collagen α5 chain G869R fused to LgBiT (P29400, form named): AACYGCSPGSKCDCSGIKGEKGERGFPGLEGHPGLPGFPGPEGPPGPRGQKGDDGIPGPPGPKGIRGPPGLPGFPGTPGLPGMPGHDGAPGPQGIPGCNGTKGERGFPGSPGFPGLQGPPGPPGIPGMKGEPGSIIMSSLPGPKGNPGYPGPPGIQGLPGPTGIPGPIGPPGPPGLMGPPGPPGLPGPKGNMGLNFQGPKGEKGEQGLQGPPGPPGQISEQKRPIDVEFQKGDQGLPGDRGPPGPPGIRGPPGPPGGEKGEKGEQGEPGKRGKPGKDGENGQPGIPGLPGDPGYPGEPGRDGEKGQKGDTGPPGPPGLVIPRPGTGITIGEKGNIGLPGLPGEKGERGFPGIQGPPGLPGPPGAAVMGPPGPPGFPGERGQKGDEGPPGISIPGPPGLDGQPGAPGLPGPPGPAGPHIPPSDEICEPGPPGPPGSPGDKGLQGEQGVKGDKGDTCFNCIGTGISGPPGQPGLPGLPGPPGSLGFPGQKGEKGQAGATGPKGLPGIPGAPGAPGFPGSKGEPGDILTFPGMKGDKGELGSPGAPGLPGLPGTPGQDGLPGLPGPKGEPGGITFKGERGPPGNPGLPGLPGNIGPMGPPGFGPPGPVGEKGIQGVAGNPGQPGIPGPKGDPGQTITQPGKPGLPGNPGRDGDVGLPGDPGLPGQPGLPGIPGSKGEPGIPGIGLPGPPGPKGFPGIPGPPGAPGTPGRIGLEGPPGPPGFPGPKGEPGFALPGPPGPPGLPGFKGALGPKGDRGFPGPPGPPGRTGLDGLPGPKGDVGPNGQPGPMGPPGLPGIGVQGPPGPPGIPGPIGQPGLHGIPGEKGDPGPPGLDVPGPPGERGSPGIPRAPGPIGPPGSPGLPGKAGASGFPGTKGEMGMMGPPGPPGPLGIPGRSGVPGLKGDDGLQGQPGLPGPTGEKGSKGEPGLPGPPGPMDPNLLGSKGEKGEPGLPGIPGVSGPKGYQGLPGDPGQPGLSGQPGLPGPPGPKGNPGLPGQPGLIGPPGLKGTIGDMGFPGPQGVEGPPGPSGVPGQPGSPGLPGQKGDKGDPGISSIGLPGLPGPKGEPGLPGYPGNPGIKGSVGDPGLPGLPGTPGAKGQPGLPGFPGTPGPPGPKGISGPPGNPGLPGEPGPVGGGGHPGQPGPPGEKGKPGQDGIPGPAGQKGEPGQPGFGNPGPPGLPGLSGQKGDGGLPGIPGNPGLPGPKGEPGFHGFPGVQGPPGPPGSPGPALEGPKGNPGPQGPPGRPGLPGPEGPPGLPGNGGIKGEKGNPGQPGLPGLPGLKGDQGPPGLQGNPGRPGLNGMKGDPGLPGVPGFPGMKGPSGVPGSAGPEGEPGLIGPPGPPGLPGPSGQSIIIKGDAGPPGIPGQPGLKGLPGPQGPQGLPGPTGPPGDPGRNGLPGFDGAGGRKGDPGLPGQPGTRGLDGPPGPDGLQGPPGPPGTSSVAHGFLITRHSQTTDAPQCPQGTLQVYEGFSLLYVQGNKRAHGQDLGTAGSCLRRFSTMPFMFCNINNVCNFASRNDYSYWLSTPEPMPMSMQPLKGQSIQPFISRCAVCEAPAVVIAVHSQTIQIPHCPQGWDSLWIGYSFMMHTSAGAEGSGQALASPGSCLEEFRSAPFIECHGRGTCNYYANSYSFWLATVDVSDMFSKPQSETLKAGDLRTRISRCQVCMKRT
human type IV collagen α5 chain G1220D fused to LgBiT (P29400, form named): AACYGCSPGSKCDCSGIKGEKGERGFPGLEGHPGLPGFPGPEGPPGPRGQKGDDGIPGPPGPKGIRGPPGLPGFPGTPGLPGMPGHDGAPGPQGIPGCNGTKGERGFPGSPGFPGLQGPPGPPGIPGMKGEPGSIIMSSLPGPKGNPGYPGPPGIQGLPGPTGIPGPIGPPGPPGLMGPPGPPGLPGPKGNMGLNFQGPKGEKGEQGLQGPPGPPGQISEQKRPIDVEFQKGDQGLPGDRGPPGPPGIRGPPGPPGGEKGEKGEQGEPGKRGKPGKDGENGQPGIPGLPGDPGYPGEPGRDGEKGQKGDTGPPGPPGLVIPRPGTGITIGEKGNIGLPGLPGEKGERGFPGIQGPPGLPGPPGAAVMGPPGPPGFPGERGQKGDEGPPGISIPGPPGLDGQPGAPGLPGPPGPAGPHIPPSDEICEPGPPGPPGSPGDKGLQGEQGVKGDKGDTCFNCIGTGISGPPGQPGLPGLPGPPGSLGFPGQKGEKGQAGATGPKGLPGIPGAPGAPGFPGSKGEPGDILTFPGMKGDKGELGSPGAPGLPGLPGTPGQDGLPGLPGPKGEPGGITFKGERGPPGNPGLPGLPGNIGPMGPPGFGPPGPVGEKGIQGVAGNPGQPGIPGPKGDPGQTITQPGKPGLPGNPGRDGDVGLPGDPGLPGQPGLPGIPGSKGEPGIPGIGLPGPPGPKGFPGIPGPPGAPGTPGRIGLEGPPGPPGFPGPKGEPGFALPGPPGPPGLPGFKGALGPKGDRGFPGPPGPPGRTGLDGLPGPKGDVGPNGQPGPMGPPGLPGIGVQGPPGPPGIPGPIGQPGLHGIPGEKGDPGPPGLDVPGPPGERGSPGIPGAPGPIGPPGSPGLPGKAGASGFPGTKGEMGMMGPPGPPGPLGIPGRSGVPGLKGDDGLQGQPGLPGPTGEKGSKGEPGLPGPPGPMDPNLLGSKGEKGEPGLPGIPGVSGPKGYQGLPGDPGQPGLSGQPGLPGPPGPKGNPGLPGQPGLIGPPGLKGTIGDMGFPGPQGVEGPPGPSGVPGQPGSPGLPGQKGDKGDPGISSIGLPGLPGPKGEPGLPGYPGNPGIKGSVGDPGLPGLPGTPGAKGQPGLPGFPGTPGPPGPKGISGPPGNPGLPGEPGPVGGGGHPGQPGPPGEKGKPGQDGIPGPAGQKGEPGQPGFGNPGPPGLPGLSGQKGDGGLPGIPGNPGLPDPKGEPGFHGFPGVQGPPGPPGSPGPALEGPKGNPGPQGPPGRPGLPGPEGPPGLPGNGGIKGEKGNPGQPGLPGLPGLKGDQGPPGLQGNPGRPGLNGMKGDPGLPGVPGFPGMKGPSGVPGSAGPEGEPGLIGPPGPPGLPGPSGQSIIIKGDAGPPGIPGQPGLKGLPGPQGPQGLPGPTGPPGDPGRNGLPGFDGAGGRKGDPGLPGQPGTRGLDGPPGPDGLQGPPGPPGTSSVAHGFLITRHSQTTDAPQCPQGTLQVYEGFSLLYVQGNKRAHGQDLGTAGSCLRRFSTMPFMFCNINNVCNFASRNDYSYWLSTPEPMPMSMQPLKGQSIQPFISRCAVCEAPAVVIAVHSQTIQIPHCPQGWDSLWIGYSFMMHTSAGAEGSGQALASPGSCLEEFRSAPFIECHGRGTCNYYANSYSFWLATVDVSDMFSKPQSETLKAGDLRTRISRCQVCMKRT

Assay [1] addresses human type IV collagen α3 chain fused to SmBiT, α3(IV)-SmBiT (human) (UniProt Q01955). As to the kind of experiment: split reporter; HEK293T cells transiently cotransfected with α3(IV)-SmBiT, α4(IV)-3×FLAG and α5(IV)-LgBiT (WT or mutants); luminescence of intracellular and secreted trimer; cells treated with DMSO, 1 μM CsA or 2 μM ALV.
For assay [2] the target is unchanged. As to the kind of experiment: split reporter; HEK293T cells stably expressing α3(IV)-SmBiT, α4(IV)-3×FLAG and α5(IV)-LgBiT G1244D; luminescence of intracellular and secreted trimer (cells and culture medium), Nano-Glo Live Cell Assay; cells treated 24 h with DMSO, CsA, BFA, osmolytes, ALV and other compounds.
In assay [3] the target is human type IV collagen α3 chain G1219C fused to SmBiT (human) (UniProt Q01955). As to the kind of experiment: split reporter; HEK293T cells transiently cotransfected with α3(IV)-SmBiT, α4(IV)-3×FLAG and α5(IV)-LgBiT (WT or mutants); luminescence of intracellular and secreted trimer; cells treated with DMSO, 1 μM CsA or 2 μM ALV.

These are yes or no findings as the source states them, for the method shown. In cells and extracts the contact can be indirect. Some results given as binding are weak or reduced against the parent protein; the word gives no strength.

For “human type IV collagen α5 chain G869R fused to LgBiT (from UniProt P29400 27-1685)”, the binding result in assay [1] is reported as “binds”. “human type IV collagen α5 chain G1220D fused to LgBiT (from UniProt P29400 27-1685)”: in assay [1], the binding result is reported as “binds”. The same measure, in the same setting: in the case of “human type IV collagen α5 chain G1241C fused to LgBiT (from UniProt P29400 27-1685)” it was “binds”; in that of “human type IV collagen α5 chain G1241V fused to LgBiT (from UniProt P29400 27-1685)”, “binds”.

In the case of “human type IV collagen α5 chain G1244D fused to LgBiT, α5(IV)-LgBiT G1244D (from UniProt P29400 27-1685)”, the binding entry in assay [2] and in assay [1] was “binds” each time.

For the substance “human type IV collagen α5 chain fused to LgBiT, α5(IV)-LgBiT wild type (from UniProt P29400 27-1685)”, the binding result in assay [3] and in assay [1] was “binds” each time.
